Reference: paper PMC12828004
No constants are given. Whether binding was seen depends on the method and setting. In cells and extracts the contact can be indirect. Some binding calls cover weakened binding; strength is not graded here.

Amino acid sequences for entries named in this document (tags omitted).
UniProt P41145: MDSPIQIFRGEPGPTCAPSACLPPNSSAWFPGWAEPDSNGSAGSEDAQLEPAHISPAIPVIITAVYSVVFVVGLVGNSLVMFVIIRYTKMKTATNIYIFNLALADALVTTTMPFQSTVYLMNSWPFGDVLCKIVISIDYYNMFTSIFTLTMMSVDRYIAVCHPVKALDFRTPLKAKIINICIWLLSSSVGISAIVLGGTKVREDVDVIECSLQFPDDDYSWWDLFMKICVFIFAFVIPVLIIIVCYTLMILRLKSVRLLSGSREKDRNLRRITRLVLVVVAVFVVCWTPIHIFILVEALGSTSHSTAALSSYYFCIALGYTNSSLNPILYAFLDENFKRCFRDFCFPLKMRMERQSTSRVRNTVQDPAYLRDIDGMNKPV

Target: FLAG-OPRK1, co-expressed in HEK293T cells (UniProt P41145)
Assay: co-IP; FLAG-OPRK1 co-expressed with GFP-SLC9A3R1 constructs (full length, truncations, point mutants); HEK293T cells stated for Fig. 7B, cells of Fig. 7D not stated; NP-40 buffer; FLAG beads, 4 °C, 3 h; immunoblot

binding	Binder
binds	SLC9A3R1 Q73A point mutant (protein, UniProt O14745 1-358) MSADAAAGAPLPRLCCLEKGPNGYGFHLHGEKGKLGQYIRLVEPGSPAEKAGLLAGDRLVEVNGENVEKETHAQVVSRIRAALNAVRLLVVDPETDEQLQKLGVQVREELLRAQEAPGQAEPPAAAEVQGAGNENEPREADKSHPEQRELRPRLCTMKKGPSGYGFNLHSDKSKPGQFIRSVDPDSPAEASGLRAQDRIVEVNGVCMEGKQHGDVVSAIRAGGDETKLLVVDRETDEFFKKCRVIPSQEHLNGPLPVPFTNGEIQKENSREALAEAALESPRPALVRSASSDTSEELNSQDSPPKQDSTAPSSTSSSDPILDFNISLAMAKERAHQKRSSKRAPQMDWSKKNELFSNL
binds	SLC9A3R1 S77A point mutant (protein, UniProt O14745 1-358) MSADAAAGAPLPRLCCLEKGPNGYGFHLHGEKGKLGQYIRLVEPGSPAEKAGLLAGDRLVEVNGENVEKETHQQVVARIRAALNAVRLLVVDPETDEQLQKLGVQVREELLRAQEAPGQAEPPAAAEVQGAGNENEPREADKSHPEQRELRPRLCTMKKGPSGYGFNLHSDKSKPGQFIRSVDPDSPAEASGLRAQDRIVEVNGVCMEGKQHGDVVSAIRAGGDETKLLVVDRETDEFFKKCRVIPSQEHLNGPLPVPFTNGEIQKENSREALAEAALESPRPALVRSASSDTSEELNSQDSPPKQDSTAPSSTSSSDPILDFNISLAMAKERAHQKRSSKRAPQMDWSKKNELFSNL
